The values below come from paper PMC5626749.

Chains of the proteins cited; added tags and fusions are not shown.
UniProt O88522: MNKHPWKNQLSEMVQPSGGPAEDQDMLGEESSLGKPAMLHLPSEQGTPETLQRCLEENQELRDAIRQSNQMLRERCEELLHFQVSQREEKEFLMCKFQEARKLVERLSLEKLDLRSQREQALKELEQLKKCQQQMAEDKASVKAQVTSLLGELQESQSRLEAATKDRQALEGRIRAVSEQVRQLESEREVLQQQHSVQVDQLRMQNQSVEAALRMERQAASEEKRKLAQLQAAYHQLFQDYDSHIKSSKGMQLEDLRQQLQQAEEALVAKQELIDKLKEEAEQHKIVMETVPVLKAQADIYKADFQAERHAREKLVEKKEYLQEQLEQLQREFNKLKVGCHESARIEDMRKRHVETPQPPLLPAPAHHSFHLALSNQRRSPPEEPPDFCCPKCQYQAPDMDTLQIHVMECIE

Assay [1] has as its target IKKγ/NEMO (UniProt O88522). In words: co-IP; Plat-E cells co-transfected with pMX-NUMBL and pMX-TRAF6 or pMX-NEMO; lysis in 10 mM Tris-HCl pH 8.0, 1 mM EDTA, 125 mM NaCl, 1% NP-40; IP with anti-TRAF6 or anti-NEMO antibody and Protein-G beads overnight at 4 °C; washes with 20 mM NaCl buffer; immunoblot for NUMBL.
The target of assay [2] is T1, Tumor Necrosis Factor Receptor Associated Factor 6 (TRAF6) (UniProt P70196).
T1 sequence: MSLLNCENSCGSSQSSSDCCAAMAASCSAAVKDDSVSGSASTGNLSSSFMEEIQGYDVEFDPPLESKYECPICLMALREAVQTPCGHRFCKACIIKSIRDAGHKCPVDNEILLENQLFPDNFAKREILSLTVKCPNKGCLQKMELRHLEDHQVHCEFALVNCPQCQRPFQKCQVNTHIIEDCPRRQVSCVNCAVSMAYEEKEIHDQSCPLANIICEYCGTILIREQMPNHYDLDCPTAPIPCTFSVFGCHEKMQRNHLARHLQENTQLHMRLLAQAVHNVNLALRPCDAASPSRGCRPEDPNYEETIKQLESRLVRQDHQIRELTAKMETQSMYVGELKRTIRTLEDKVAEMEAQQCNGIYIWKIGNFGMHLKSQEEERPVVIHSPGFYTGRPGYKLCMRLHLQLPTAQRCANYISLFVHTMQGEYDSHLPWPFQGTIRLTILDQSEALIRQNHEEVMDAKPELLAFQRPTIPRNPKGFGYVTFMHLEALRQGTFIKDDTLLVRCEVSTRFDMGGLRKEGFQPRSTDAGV
Described as above.

These are yes or no findings as the source states them, for the method shown. Binding seen in cells or lysates may run through a third protein. Some binding calls cover weakened binding; strength is not graded here.

B1: NUMB-like (NUMBL) protein (protein, UniProt O08919 1-604)
chain: MSRSAAASGGPRRPDQHLSPAPCGASGPPETFRTESDGAGTMNKLRQSLRRRKPAYVPEASRPHQWQADEDAVRKGTCSFPVRYLGHVEVEESRGMHVCEDAVKKLKAMGRKSVKSVLWVSADGLRVVDDKTKDLLVDQTIEKVSFCAPDRNLDKAFSYICRDGTTRRWICHCFLALKDSGERLSHAVGCAFAACLERKQRREKECGVTAAFDASRTSFAREGSFRLSGGGRPAEREAGDKKKAEAAAAPAVAPGPAQPGHVSPTPATTSPGEKGEAGTPVAAGTTAAAIPRRHAPLEQLVRQGSFRGFPALSQKNSPFKRQLSLRLNELPSTLQRRTDFQVKGTVPEMEPPGTGDSDGINALCTQISSSFASAGAPASGPPPATTGTSAWGEPSVPAAAAFQPGHKRTPSEAERWLEEVSQVAKAQQQQQQQQQQQQQQQATSVPPMPTMAPTLQPFSAPVGPFDTAAAQVAVFLPPTHMQPPFVPAYPGLGYPPMPRVPVVGITPSQMVANAFCSAAQLQPQPATLLGKAGAFPPPAAPSAPGGQARPRPNGAPWPPEPAPAPAPELDPFEAQWAALEGKPAVEKPSNPFSGDLQKTFEIEL
As for B1, the binding entry in assay [1] and in assay [2] was “binds” each time.
